The target of assay [1] is gVSD N-terminus (soluble) (Arabidopsis thaliana) (UniProt Q94A76). In words: gel filtration of soluble N-termini (self-association).
The target of assay [2] is T1, full-length GORK channel (GORK-Cub bait fusion) (Arabidopsis thaliana) (UniProt Q94A76).
T1 sequence: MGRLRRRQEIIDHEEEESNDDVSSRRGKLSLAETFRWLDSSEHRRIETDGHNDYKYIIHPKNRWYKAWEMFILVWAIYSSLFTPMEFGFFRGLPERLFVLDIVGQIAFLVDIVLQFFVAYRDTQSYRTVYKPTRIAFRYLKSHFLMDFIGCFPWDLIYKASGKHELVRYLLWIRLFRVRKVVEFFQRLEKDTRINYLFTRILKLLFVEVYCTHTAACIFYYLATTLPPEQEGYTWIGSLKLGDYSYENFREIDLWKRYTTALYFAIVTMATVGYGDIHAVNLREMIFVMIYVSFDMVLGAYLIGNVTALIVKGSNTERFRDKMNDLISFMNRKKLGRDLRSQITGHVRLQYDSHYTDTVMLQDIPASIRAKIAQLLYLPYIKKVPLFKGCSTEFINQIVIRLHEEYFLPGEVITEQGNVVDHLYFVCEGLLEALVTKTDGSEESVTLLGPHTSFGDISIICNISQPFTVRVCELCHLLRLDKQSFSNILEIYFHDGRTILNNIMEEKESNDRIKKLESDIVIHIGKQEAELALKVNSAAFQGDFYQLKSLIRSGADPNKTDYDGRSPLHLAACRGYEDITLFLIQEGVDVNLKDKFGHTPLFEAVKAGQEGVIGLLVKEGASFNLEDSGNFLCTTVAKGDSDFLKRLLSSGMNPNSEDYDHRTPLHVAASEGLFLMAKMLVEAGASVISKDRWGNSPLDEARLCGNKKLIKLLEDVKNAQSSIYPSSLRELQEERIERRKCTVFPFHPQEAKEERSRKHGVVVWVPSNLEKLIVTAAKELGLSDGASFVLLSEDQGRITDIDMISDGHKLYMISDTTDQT
Briefly: mbSUS in yeast, GORK-Cub bait, truncated prey.

The target in assay [3] is T1, full-length GORK channel (GORK-Cub bait fusion) (Arabidopsis thaliana). Briefly: rBiFC in vivo, confocal imaging.
Assay [4] has the same target. In words: mbSUS in yeast, GORK-Cub bait, Nub-X prey.

No constants are given. Whether binding was seen depends on the method and setting. Some entries that bind do so weakly or less than the wild type. For part of these data: Sequences can lack the tags named with a protein.

B1: gVSD N-terminus (soluble) (protein)
chain: MGRLRRRQEIIDHEEEESNDDVSSRRGKLSLAETFRWLDSSEHRRIETDGHNDYKYIIHPKNRWYKAWE
As to B1, the binding result in assay [1] is “binds”.

B2: gVSD with the first 23 residues deleted (protein)
chain: SRRGKLSLAETFRWLDSSEHRRIETDGHNDYKYIIHPKNRWYKAWEMFILVWAIYSSLFTPMEFGFFRGLPERLFVLDIVGQIAFLVDIVLQFFVAYRDTQSYRTVYKPTRIAFRYLKSHFLMDFIGCFPWDLIYKASGKHELVRYLLWIRLFRVRKVVEFFQRLEKDTRINYLFTRILK
For the molecule B2, the binding entry in assay [2] was “binds”.

B3: GORK voltage sensor domain (gVSD) (protein)
chain: MGRLRRRQEIIDHEEEESNDDVSSRRGKLSLAETFRWLDSSEHRRIETDGHNDYKYIIHPKNRWYKAWEMFILVWAIYSSLFTPMEFGFFRGLPERLFVLDIVGQIAFLVDIVLQFFVAYRDTQSYRTVYKPTRIAFRYLKSHFLMDFIGCFPWDLIYKASGKHELVRYLLWIRLFRVRKVVEFFQRLEKDTRINYLFTRILK
As to B3, the binding result in assay [3] and in assay [4] was “binds” throughout.

B4: gVSD^PNNP (protein)
chain: MGRLRRRQEIIDHEEEESNDDVSSDDGDLSLAKTFDWLKSSKDDDIKTKGDNKYDYIIDPKNRWYKAWEMFILVWAIYSSLFTPMEFGFFRGLPERLFVLDIVGQIAFLVDIVLQFFVAYRDTQTYRTVYKPTRIAFRYLKSHFLMDFIGCFPWDLIYKASGKHELVRYLLWIRLFRVRKVVEFFQRLEKDTRINYLFTRILK
Regarding B4, the binding result in assay [3] and in assay [4] was “binds” throughout.

Values taken from patent publication US20250137008A1 (UNIVERSITY OF GLASGOW, published 2025).
